# In PubChem BioAssay AID2685 (National Center for Advancing Translational Sciences (NCATS), 2010):
# The list shows a part of the results. Shown are side measurements of this screen, not its main read-out; they come without a call. Compounds called inactive in the main read-out are mostly missing here. Potencies come from curve fits of mixed quality, noted in brackets.
# Experiment: qHTS Assay for Lipid Storage Modulators in Drosophila S3 Cells;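 on cell number change: cells counted by Cell Tracker Red CMTPX staining in the red channel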
# Details: BODIPY lipid droplet fluorescence, 18-24 h; for cell number change: measured here: cell count max response, cells fed with added oleic acid
# Procedure, shortened: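 Laser-scanning cytometry quantifies lipid droplet accumulation (500–530 nm total intensity; droplet/cell object ratio) in oleic acid-fed (400 uM added) Drosophila S3 cells treated with a concentration series. 20 uM Triacsin C defined 100% inhibition.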
# [1] = measured here: lipid fluorescence (Fed channel) AC50, cells fed with added oleic acid
# [2] = measured here: cell number channel AC50, cells fed with added oleic acid
SMILES,cell number change [%],AC50 [1],AC50 [2]
CC(C)N(C(C)C)S(=O)(=O)c1ccc(NC(=O)c2cnccn2)cc1,-21.5,"8200 nM [falling, partial curve]",
O=C(CCN1C(=O)C2C3CCC(C3)C2C1=O)Nc1ccc([N+](=O)[O-])cc1 (stereo not given),-4.46,"517 nM [falling, partial curve, poor fit]","116 nM [falling, single point]"
Cn1c(=O)c2c(ncn2CC(=O)OCC(=O)Nc2sccc2C(N)=O)n(C)c1=O,0.347,"651 nM [falling, single point]",
CCCCCNC(=O)Cn1c(=O)c2c(ncn2CC(C)C)n(Cc2ccccc2)c1=O,-31.6,"5620 nM [falling, single point]","2590 nM [falling, partial curve, poor fit]"
CCc1nc(SCC(=O)NC2CCCC2)c2oc3ccccc3c2n1,-23.6,,"259 nM [falling, partial curve, poor fit]"
O=C(CCN1CCN(c2ccccc2)CC1)N/N=C/c1ccccc1O,7.44,,
COc1cc(Nc2c3ccccc3nc3ccccc23)cc(OC)c1OC,-25.2,"29100 nM [falling, single point]",
COc1ccccc1N1CCN(/N=C/c2c(C)nn(-c3ccccc3)c2C)CC1,,,"1160 nM [rising, partial curve]"
CC(C)Oc1ccc(CNC(=O)Cn2c(=O)oc3ccccc32)cc1,16.4,"517 nM [falling, single point]","517 nM [falling, single point]"
CC(C)(C)c1nnc2sc(SCC(=O)c3cccs3)nn2c1=O,10.4,"20600 nM [rising, single point]",
COc1ccc(NC(=O)CCN2C(=O)c3ccccc3C2=O)c(OC)c1,3.67,,
O=C(CCCSc1nc2ccccc2c(=O)[nH]1)c1ccccc1,,,"4.11 nM [rising, full curve, poor fit]"
O=C(COc1ccc(Br)cc1Cl)NC(=O)Nc1ccc2c(c1)OCCO2,22.3,,"92 nM [rising, partial curve, poor fit]"
CCCCn1c(N)c(N(CCC(C)C)C(=O)CSc2nnc(Nc3ccccc3)s2)c(=O)[nH]c1=O,20,,
Cc1nn(Cc2ccc(Cl)cc2)c(C)c1NC(=O)c1noc2c1CCc1ccccc1-2,78.6,"731 nM [rising, full curve]","1300 nM [rising, full curve]"
COc1cccc(CN(C)CC(O)COC(c2ccccc2)c2ccccc2C)c1 (stereo not given),14.5,,
CC(=O)Nc1ccccc1-c1nc2ccc(C(=O)N3CCN(c4cccc(C)c4)C(C)C3)cc2[nH]c1=O (stereo not given),8.23,"8.2 nM [falling, full curve, poor fit]",
COc1ccccc1OCCn1cc(/C=C(\C#N)C(=O)NCc2ccco2)c2ccccc21,17.5,"3660 nM [rising, single point]",

SMILES,cell number change [%],AC50 [1],AC50 [2]
O=C(c1cccs1)N1CCN(C(=O)N2CCOCC2)CC1,-12.2,"32600 nM [falling, partial curve]",
Cc1ccn2c(=O)nc(SCC(=O)N3N=C(c4cccs4)CC3c3ccc(F)cc3)nc2c1 (stereo not given),,,"3260 nM [rising, single point]"
O=c1[nH]c(Nc2nc3ccccc3o2)nc2c1CCCC2,11.9,"5.8 nM [rising, full curve, poor fit]",
O=C(O)C(Cc1ccccc1)Nc1ccc([N+](=O)[O-])cc1[N+](=O)[O-] (stereo not given),2.7,,
Cc1cccc(/C(N)=N/OC(=O)CCCc2ccccc2)c1,31.7,"6510 nM [falling, single point]","411 nM [rising, full curve, poor fit]"
CC1(C)Oc2ccc3ccc(=O)oc3c2/C(=C/NNC(N)=O)C1=O,9.06,"580 nM [falling, single point]",
CSC1=NCCN1C(=O)c1ccc(S(=O)(=O)N2CCOCC2)cc1,-30.6,"29100 nM [falling, single point]","29100 nM [falling, single point]"
O=C(Cc1cccc(NC(=O)C2CCCN(C(=O)C3CCC3)C2)c1)Nc1cccc(C(=O)N2CCCC2)c1 (stereo not given),-10.9,"5.17 nM [falling, full curve, poor fit]","5.17 nM [falling, full curve, poor fit]"
CCN(CC)C(=O)CSc1nnc(-c2ccc(S(=O)(=O)NCc3ccccc3Cl)cc2)o1,22,"3260 nM [falling, single point]",
COCCCN=C1NN=C(c2cc(C)n(-c3ccccc3F)c2C)CS1,,"6510 nM [rising, single point]",
C=CCOc1ccc(/C=C/C(=O)OCC(=O)NCC(=O)Nc2c(C)cc(C)cc2C)cc1,,"3660 nM [rising, partial curve]","5800 nM [rising, single point]"
CCOC(=O)N1CCC(NC(=O)C(NC(=O)C2CCCCC2)C(C)C)CC1 (stereo not given),4.31,,
CCCCCC(=O)Nc1ccc2oc(-c3cccnc3)nc2c1,63.9,"259 nM [rising, full curve]","29100 nM [rising, partial curve, poor fit]"
Cn1nc([N+](=O)[O-])nc1Oc1ccccc1C(=O)N1CCOCC1,5.31,,"6510 nM [falling, single point]"
CC1=C(C)CC(C(=O)NCCCN2CCCC2=O)C(C(=O)O)C1 (stereo not given),-8.61,"82 nM [falling, full curve, poor fit]",
NC(=O)CC(NC(=O)c1ccc(Br)cc1)c1ccc(NC2CCCCCCC2)c([N+](=O)[O-])c1 (stereo not given),64.1,"16400 nM [falling, partial curve]","29100 nM [rising, single point]"
CS(=O)(=O)NNC(=O)CN1C(=O)C2C3C=CC(C3)C2C1=O (stereo not given),-0.197,"6510 nM [falling, single point]","6510 nM [falling, single point]"

# Three compounds from above, sorted by formula weight, high to low.
SMILES,cell number change [%],AC50 [1],AC50 [2]
NC(=O)CC(NC(=O)c1ccc(Br)cc1)c1ccc(NC2CCCCCCC2)c([N+](=O)[O-])c1 (stereo not given),64.1,"16400 nM [falling, partial curve]","29100 nM [rising, single point]"
CC(C)N(C(C)C)S(=O)(=O)c1ccc(NC(=O)c2cnccn2)cc1,-21.5,"8200 nM [falling, partial curve]",
O=c1[nH]c(Nc2nc3ccccc3o2)nc2c1CCCC2,11.9,"5.8 nM [rising, full curve, poor fit]",
